Some of the results follow.
Key:
Assay in all cases: log2 fold change, soluble protein after heating vs DMSO (PISA); higher = thermal stabilisation; K562 lysate, 10 uM; active = over 0.2 and 3.5 SD of the protein, either way, in both replicates (recomputed)
erlotinib = compound: C#Cc1cccc(Nc2ncnc3cc(OCCOC)c(OCCOC)cc23)c1 [erlotinib]
How it was run: (§1)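 K562 pellets were dounce-homogenised in PBS pH 7.4 containing 1 mM MgCl2, and the crude extract, at 1 mg/mL protein, was exposed to 10 μM compound for 30 min. Aliquots were heated for 3 min across 48°C-58°C, pooled, brought to 0.5% NP-40 at 4°C and spun at 21,000xg for 90 min, with the supernatant taken as soluble protein. TMTpro 16plex LC-MS/MS with equalised channel sums quantified that protein. Values are log-two fold changes in thermal stability relative to solvent controls, taken from duplicates.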

The chains behind the UniProt entries cited, without tags or fusion partners. Where a name states a change or a piece, a line headed by the entry shows the natural chain unless it says otherwise.
UniProt Q9BZE9, whole entry, looked up: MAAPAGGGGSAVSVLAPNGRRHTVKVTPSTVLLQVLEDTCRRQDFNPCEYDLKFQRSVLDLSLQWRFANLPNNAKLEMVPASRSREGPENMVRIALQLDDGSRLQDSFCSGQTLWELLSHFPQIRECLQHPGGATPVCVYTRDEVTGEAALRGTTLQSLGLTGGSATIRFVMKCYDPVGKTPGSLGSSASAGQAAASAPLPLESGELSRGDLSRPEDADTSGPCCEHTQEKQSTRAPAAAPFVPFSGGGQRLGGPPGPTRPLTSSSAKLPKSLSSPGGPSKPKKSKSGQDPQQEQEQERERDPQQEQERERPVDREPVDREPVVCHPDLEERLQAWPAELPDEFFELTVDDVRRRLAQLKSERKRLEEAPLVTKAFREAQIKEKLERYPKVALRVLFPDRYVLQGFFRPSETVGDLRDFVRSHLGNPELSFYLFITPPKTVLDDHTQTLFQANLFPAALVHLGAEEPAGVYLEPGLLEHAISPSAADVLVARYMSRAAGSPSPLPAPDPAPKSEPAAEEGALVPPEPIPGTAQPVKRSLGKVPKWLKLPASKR
UniProt P21283, whole entry, looked up: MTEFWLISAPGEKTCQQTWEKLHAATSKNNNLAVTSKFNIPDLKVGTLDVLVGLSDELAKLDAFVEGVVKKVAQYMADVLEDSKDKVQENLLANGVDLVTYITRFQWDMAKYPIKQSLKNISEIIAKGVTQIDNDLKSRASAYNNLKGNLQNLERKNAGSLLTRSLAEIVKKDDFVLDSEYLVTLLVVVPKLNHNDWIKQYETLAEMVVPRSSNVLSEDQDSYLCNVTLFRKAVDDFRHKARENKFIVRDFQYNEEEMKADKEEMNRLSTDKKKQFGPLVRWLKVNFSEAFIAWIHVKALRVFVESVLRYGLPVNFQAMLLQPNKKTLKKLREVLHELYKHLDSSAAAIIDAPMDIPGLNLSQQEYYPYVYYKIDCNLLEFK
UniProt Q96A05, whole entry, looked up: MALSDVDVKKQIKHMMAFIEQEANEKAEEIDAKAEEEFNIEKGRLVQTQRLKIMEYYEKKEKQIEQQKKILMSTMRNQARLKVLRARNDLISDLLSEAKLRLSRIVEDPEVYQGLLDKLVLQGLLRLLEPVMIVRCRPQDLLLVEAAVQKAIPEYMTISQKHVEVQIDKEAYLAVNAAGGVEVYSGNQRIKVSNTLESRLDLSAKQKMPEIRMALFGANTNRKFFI
UniProt P46100: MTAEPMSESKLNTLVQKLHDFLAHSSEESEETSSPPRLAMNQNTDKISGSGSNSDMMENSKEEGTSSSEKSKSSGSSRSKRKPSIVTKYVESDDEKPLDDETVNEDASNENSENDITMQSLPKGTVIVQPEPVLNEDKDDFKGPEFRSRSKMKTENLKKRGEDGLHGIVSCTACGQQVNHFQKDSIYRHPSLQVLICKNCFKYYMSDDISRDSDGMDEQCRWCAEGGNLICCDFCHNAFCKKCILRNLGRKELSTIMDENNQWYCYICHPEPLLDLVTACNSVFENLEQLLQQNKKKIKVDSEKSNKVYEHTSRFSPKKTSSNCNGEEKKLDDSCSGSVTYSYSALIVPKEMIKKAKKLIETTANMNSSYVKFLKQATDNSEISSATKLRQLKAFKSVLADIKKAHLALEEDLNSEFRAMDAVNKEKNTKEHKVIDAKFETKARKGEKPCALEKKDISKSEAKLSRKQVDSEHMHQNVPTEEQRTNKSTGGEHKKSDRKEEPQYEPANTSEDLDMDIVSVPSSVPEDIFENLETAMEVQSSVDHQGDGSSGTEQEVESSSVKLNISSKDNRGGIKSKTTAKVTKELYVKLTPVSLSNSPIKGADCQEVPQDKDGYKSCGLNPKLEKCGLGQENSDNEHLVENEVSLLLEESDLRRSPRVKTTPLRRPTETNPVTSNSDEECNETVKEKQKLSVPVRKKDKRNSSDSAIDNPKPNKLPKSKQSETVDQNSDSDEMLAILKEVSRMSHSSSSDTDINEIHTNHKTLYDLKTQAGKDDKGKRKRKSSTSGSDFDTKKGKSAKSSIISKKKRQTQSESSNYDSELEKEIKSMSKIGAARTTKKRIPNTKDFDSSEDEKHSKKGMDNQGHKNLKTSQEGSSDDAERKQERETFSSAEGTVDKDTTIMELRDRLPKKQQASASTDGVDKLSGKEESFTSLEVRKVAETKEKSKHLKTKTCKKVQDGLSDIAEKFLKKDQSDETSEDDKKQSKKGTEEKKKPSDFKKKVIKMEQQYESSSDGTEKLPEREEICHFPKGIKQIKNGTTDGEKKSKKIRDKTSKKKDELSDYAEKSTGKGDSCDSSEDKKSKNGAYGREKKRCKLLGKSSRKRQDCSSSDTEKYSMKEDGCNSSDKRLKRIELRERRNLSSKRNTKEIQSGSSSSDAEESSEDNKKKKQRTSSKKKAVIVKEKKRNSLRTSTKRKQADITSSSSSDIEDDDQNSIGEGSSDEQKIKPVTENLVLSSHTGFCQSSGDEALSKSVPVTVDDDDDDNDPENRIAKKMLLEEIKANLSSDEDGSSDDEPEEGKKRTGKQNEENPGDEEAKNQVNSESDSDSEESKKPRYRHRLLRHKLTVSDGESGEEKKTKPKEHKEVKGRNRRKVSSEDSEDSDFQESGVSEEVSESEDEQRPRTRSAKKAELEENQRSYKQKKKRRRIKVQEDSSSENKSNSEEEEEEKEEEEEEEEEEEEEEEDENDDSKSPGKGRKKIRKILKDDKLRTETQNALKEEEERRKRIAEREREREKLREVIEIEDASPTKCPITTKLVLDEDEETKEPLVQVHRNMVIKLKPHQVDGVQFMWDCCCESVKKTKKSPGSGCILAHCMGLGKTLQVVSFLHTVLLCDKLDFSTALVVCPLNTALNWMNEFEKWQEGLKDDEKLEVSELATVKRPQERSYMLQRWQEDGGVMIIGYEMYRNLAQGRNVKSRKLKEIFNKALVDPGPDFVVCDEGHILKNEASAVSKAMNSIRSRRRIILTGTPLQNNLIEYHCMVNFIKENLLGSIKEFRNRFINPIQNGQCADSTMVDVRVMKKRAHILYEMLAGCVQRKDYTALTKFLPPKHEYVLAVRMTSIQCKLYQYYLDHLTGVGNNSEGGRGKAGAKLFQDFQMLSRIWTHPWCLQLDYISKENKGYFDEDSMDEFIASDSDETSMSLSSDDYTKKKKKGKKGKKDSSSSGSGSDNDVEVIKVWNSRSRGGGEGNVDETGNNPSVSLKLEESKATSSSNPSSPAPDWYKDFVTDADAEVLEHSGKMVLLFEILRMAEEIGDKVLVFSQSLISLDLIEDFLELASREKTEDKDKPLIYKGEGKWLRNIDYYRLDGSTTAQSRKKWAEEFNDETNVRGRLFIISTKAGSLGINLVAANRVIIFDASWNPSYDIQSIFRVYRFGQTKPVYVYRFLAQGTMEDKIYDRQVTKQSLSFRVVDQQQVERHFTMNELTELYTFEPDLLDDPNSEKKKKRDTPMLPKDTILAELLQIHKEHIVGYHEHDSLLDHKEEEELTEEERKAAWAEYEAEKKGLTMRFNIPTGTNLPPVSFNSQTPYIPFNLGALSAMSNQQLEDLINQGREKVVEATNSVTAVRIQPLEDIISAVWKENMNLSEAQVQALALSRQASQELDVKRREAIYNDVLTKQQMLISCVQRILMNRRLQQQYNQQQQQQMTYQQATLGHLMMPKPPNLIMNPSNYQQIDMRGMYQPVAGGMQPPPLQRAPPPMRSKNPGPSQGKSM
UniProt Q00973: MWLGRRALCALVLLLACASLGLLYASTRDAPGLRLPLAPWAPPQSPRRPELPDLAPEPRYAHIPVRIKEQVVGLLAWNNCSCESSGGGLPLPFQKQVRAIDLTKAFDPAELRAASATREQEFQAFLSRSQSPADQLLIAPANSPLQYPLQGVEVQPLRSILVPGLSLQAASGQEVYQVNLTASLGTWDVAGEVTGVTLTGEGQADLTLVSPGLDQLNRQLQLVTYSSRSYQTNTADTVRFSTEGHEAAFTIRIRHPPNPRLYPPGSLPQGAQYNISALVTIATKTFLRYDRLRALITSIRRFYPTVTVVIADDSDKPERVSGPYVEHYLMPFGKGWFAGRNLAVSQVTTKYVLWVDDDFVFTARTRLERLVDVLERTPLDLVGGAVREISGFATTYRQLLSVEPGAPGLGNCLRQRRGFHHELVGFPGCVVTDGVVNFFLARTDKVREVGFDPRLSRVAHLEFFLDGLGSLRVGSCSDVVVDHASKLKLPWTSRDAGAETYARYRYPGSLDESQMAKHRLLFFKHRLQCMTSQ
UniProt Q5T9A4: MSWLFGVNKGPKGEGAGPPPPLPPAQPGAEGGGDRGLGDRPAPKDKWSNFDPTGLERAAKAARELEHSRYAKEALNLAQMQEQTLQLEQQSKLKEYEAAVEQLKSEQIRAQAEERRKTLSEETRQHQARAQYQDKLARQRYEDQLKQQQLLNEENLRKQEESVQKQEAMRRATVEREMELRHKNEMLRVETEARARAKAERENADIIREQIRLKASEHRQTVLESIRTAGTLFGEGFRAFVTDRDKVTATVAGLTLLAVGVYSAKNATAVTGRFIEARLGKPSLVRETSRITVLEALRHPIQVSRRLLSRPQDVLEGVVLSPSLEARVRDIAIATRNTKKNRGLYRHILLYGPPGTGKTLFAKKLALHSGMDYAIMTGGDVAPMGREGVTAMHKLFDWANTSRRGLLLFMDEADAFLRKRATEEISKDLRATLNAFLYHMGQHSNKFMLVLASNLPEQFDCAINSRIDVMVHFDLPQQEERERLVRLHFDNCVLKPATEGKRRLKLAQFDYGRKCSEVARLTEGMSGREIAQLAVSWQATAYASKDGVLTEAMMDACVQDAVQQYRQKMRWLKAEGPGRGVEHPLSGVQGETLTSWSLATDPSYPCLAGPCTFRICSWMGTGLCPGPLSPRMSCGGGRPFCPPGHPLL
UniProt P27449, whole entry, looked up: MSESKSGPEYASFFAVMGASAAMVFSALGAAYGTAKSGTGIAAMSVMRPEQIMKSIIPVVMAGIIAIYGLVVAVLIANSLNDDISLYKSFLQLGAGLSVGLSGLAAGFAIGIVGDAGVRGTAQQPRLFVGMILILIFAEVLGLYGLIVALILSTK
UniProt Q6ZNE5, whole entry, looked up: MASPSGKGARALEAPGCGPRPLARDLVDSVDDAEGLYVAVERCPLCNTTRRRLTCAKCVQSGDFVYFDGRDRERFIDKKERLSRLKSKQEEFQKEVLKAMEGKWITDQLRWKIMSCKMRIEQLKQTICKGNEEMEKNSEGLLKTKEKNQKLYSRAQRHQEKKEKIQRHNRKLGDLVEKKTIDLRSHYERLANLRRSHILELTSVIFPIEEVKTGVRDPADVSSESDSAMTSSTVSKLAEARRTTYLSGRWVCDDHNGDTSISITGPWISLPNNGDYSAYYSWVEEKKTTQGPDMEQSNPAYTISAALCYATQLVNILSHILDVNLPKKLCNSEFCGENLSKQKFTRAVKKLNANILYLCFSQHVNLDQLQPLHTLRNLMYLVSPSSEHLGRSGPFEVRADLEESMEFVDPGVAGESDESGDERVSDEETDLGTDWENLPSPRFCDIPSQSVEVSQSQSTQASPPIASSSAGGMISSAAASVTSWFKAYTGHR
UniProt Q9NQS1: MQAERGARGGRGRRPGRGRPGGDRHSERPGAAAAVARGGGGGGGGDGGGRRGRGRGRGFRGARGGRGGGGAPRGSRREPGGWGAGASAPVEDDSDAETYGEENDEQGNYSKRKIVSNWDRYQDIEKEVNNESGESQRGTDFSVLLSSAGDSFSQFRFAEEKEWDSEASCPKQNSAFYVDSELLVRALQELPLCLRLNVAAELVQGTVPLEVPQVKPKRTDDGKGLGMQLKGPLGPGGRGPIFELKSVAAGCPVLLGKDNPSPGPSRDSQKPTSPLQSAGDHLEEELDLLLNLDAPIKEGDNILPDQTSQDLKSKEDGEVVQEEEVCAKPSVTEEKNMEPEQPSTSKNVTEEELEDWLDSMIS
UniProt P14415, whole entry, looked up: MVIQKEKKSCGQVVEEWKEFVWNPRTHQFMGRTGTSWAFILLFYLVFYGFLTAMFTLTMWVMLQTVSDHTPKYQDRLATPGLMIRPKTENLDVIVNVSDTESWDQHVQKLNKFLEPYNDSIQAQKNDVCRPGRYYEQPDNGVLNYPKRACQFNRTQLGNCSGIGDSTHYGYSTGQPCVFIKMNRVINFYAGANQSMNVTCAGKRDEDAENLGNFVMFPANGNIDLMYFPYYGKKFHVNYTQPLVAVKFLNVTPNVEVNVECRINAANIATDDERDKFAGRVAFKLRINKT

[1] = compound: C/C(=N\NC(=O)C1=CC(=CC=C1)S(=O)(=O)N2CCOCC2)/C3=C(C=CC(=C3)Cl)O
How it was run: as §1

[2] = compound: C1=CC(=CC=C1C2=NC3=C(N2)C=C(C=C3)C(=O)N)OC4=CC=C(C=C4)Cl
How it was run: as §1

[3] = compound: C1=CC2=C(C=CC(=C2)/C=C\3/C(=O)NC(=NCC4=CC=CS4)S3)N=C1
How it was run: as §1

[4] = compound: C1=CC2=NC=CN=C2C=C1/C=C/3\C(=O)NC(=O)S3
How it was run: as §1

[5] = compound: C1=CC=C(C=C1)C2=NC(=C(N2)C3=CC=NC=C3)C4=CC(=C(C=C4)Cl)O
How it was run: as §1

[6] = compound: C1=CC=C2C(=C1)C3=NNC4=CC=CC(=C43)C2=O
How it was run: as §1

[7] = compound: C1CCN(C1)C(=O)NC2=CC=CC(=C2)NC3=NC=C(C(=N3)NCCC4=CN=CN4)Br
How it was run: as §1

[8] = compound: C1CN(CCC1(CC2=CC=C(C=C2)Cl)N)C3=NC=NC4=C3C=CN4
How it was run: as §1

IRAK-1-4 Inhibitor I = compound: C1COCCN1CCN2C3=CC=CC=C3N=C2NC(=O)C4=CC(=CC=C4)[N+](=O)[O-] [IRAK-1-4 Inhibitor I]
How it was run: as §1

ibrutinib = compound: C=CC(=O)N1CCC[C@@H](n2nc(-c3ccc(Oc4ccccc4)cc3)c3c(N)ncnc32)C1 [ibrutinib]
How it was run: as §1

[9] = compound: CC(=O)c1cnc2ccc(-c3cc(Cl)c(O)c(Cl)c3)nc2c1N[C@H]1CC[C@H](CN(C)C)CC1
How it was run: as §1

ralimetinib = compound: CC(C)(C)Cn1c(N)nc2ccc(-c3[nH]c(C(C)(C)C)nc3-c3ccc(F)cc3)nc21 [ralimetinib]
How it was run: as §1

[10] = compound: CC(C)(O)CC(=O)NCCn1ccc2ncnc(Nc3ccc(Oc4cccc(C(F)(F)F)c4)c(Cl)c3)c21
How it was run: as §1

[11] = compound: CC(C)C1=C2N=C(C=C(N2N=C1)NCC3=CC=CC=C3)NCCCCCCN
How it was run: as §1

[12] = compound: CC1=C(C(CC(=O)N1)C2=CC=C(C=C2)C(F)(F)F)C(=O)NC3=C(C=C4C(=C3)C=NN4)F
How it was run: as §1

[13] = compound: CC1=C(C2=C(C=C1)C(=O)C3=CC=CC=C3N2CCCN)C
How it was run: as §1

[14] = compound: CC1=C(C=C(C=C1)NC(=O)C2=CC(=CC=C2)C(C)(C)C#N)NC3=CC4=C(C=C3)N=CN(C4=O)C
How it was run: as §1

[15] = compound: CC1=C(C=C(C=C1)NC(=O)C2=CC(=CC=C2)N(C)C)NC(=O)C3=CC=C(C=C3)O
How it was run: as §1

[16] = compound: CC1=CC=C(C=C1)SC2=C3C=C(SC3=CN=C2)C(=O)N
How it was run: as §1

Measured: log2 fold change

ASPSCR1 (UniProt Q9BZE9)
inactive: erlotinib 0.007 | [1] 0.069 | [2] -0.032 | [3] -0.031 | [4] -0.04 | [5] 0.002 | [6] -0.024 | [7] -0.037 | [8] 0 | IRAK-1-4 Inhibitor I -0.011 | ibrutinib 0.002 | [9] -0.02 | ralimetinib 0 | [10] -0.005 | [11] -0.009 | [12] -0.042 | [13] -0.026 | [14] -0.022 | [15] 0.004 | [16] 0.026

ATP5MF-PTCD1 (UniProt G3V325)
inactive: erlotinib -0.02 | [1] 0.023 | [2] -0.045 | [3] -0.031 | [4] 0.01 | [5] -0.066 | [6] -0.04 | [7] 0.01 | [8] -0.029 | IRAK-1-4 Inhibitor I -0.05 | ibrutinib 0.035 | [9] 0.015 | ralimetinib 0.027 | [10] -0.051 | [11] -0.009 | [12] 0.052 | [13] -0.013 | [14] -0.019 | [15] -0.017 | [16] 0.02

ATP6V1C1 (UniProt P21283)
inactive: erlotinib 0.003 | [1] 0.001 | [2] -0.005 | [3] -0.006 | [4] -0.011 | [5] -0.014 | [6] 0.012 | [7] 0.001 | [8] -0.001 | IRAK-1-4 Inhibitor I -0.026 | ibrutinib 0.011 | [9] 0 | ralimetinib 0.007 | [10] -0.016 | [11] -0.022 | [12] -0.02 | [13] 0.006 | [14] 0.025 | [15] 0.014 | [16] 0.001

ATP6V1E2 (UniProt Q96A05)
inactive: erlotinib -0.011 | [1] -0.025 | [2] 0.028 | [3] -0.039 | [4] -0.006 | [5] -0.016 | [6] -0.102 | [7] -0.014 | [8] -0.002 | IRAK-1-4 Inhibitor I 0.013 | ibrutinib 0.007 | [9] -0.028 | ralimetinib -0.036 | [10] 0.007 | [11] 0.015 | [12] -0.042 | [13] -0.012 | [14] 0.004 | [15] -0.054 | [16] -0.03

ATRX (UniProt P46100)
inactive: erlotinib 0.08 | [1] 0.124 | [2] 0.057 | [3] -0.075 | [4] 0.129 | [5] -0.093 | [6] 0.04 | [7] 0.015 | [8] 0.008 | IRAK-1-4 Inhibitor I 0.026 | ibrutinib 0.097 | ralimetinib 0.015 | [10] 0.098 | [11] 0.001 | [13] -0.011 | [14] 0.084 | [15] -0.078

B4GALNT1 (UniProt Q00973)
inactive: erlotinib 0.127 | [1] 0.072 | [2] -0.012 | [3] -0.055 | [5] -0.011 | [6] 0.018 | [7] -0.036 | [8] 0.028 | IRAK-1-4 Inhibitor I 0.068 | [9] 0.083 | ralimetinib -0.063 | [10] -0.059 | [11] -0.006 | [12] 0.107 | [13] -0.076 | [14] -0.024 | [15] -0.042 | [16] -0.027

ATAD3B (UniProt Q5T9A4)
inactive: erlotinib -0.016 | [1] 0.031 | [2] -0.111 | [3] 0.029 | [4] 0.019 | [5] -0.017 | [6] 0.096 | [7] 0.018 | [8] -0.009 | IRAK-1-4 Inhibitor I 0.032 | ibrutinib -0.054 | [9] 0.018 | ralimetinib -0.027 | [10] -0.069 | [11] -0.012 | [12] -0.026 | [13] -0.028 | [14] -0.03 | [15] 0.045 | [16] 0.015

ATXN2 (UniProt F8WB05)
inactive: erlotinib 0.073 | [1] -0.082 | [2] 0.09 | [3] -0.191 | [4] -0.063 | [5] -0.011 | [6] -0.083 | [7] -0.036 | [8] 0.055 | IRAK-1-4 Inhibitor I -0.157 | ibrutinib -0.538 | [9] -0.104 | ralimetinib 0 | [10] 0.033 | [11] 0.037 | [13] 0.006 | [14] 0.119 | [15] -0.044 | [16] 0.048

ATP6V0C (UniProt P27449)
inactive: erlotinib -0.075 | [1] 0.007 | [2] 0.078 | [3] 0.017 | [4] 0.01 | [5] -0.086 | [6] 0.036 | [7] -0.107 | [8] -0.008 | IRAK-1-4 Inhibitor I -0.034 | ibrutinib 0.006 | [9] -0.075 | ralimetinib -0.027 | [10] 0.009 | [11] -0.051 | [13] 0.047 | [14] 0.066 | [15] 0.028 | [16] 0.09

ATG14 (UniProt Q6ZNE5)
inactive: erlotinib 0.071 | [1] -0.227 | [2] 0.064 | [3] 0.067 | [4] -0.026 | [6] 0.053 | [7] -0.49 | [8] -0.054 | ibrutinib 0.077 | [11] 0.009 | [12] -0.096 | [13] 0.167

AVEN (UniProt Q9NQS1)
inactive: erlotinib 0.111 | [1] 0.077 | [2] -0.205 | [3] -0.079 | [4] 0.183 | [5] 0.06 | [6] 0.055 | [7] -0.023 | [8] -0.013 | IRAK-1-4 Inhibitor I -0.096 | ibrutinib -0.03 | ralimetinib -0.061 | [10] -0.079 | [11] 0.055 | [12] 0.009 | [13] 0.027 | [14] 0.1 | [15] -0.08

ATP1B2 (UniProt P14415)
inactive: erlotinib -0.011 | [1] 0.054 | [2] 0.015 | [3] 0.065 | [4] -0.008 | [5] -0.027 | [6] -0.06 | IRAK-1-4 Inhibitor I 0.007 | ibrutinib -0.028 | [9] -0.009 | ralimetinib -0.016 | [10] -0.024 | [11] -0.028 | [13] 0.015 | [15] 0.011 | [16] 0.018

From the supplement of paper PMC10849652
